Source: patent US11685954B2, “Biomarkers predictive of endocrine resistance in breast cancer” (Dana-Farber Cancer Institute, Inc., priority 2016, dated 2023)
Entries after “also recorded” stand apart in the source; their conditions may differ.

Legend:
[1] = system: breast cancer PDX models with CSK CNV loss; settings: BCaPE data; compared with models without CSK loss; cited from earlier work
[2] = system: CSK-null T47D and MCF7 cells; experiment: Relative cell viability of control (AAVS1) and CSK-null cells after ER antagonist treatment for 5 days; settings: hormone-depleted medium plus vehicle

CC/C(=C(\c1ccccc1)c1ccc(OCCN(C)C)cc1)c1ccccc1 [tamoxifen]
IC50 in PDX models with CSK CNV loss [1]: higher
sensitivity of CSK-null cells (relative cell viability) [2]: completely resistant; also recorded: but not
